Test results: publication PMC7773993
No constants are given. Whether binding was seen depends on the method and setting. Binding seen in cells or lysates may run through a third protein. Here binding means that the protein was enriched with, or labelled near, the bait; the list need not be complete. For part of these data: A no says only that the protein was not detected with the bait.

The chains behind the UniProt entries cited, without tags or fusion partners. Where a name states a change or a piece, a line headed by the entry shows the natural chain unless it says otherwise.
UniProt Q4WMT1: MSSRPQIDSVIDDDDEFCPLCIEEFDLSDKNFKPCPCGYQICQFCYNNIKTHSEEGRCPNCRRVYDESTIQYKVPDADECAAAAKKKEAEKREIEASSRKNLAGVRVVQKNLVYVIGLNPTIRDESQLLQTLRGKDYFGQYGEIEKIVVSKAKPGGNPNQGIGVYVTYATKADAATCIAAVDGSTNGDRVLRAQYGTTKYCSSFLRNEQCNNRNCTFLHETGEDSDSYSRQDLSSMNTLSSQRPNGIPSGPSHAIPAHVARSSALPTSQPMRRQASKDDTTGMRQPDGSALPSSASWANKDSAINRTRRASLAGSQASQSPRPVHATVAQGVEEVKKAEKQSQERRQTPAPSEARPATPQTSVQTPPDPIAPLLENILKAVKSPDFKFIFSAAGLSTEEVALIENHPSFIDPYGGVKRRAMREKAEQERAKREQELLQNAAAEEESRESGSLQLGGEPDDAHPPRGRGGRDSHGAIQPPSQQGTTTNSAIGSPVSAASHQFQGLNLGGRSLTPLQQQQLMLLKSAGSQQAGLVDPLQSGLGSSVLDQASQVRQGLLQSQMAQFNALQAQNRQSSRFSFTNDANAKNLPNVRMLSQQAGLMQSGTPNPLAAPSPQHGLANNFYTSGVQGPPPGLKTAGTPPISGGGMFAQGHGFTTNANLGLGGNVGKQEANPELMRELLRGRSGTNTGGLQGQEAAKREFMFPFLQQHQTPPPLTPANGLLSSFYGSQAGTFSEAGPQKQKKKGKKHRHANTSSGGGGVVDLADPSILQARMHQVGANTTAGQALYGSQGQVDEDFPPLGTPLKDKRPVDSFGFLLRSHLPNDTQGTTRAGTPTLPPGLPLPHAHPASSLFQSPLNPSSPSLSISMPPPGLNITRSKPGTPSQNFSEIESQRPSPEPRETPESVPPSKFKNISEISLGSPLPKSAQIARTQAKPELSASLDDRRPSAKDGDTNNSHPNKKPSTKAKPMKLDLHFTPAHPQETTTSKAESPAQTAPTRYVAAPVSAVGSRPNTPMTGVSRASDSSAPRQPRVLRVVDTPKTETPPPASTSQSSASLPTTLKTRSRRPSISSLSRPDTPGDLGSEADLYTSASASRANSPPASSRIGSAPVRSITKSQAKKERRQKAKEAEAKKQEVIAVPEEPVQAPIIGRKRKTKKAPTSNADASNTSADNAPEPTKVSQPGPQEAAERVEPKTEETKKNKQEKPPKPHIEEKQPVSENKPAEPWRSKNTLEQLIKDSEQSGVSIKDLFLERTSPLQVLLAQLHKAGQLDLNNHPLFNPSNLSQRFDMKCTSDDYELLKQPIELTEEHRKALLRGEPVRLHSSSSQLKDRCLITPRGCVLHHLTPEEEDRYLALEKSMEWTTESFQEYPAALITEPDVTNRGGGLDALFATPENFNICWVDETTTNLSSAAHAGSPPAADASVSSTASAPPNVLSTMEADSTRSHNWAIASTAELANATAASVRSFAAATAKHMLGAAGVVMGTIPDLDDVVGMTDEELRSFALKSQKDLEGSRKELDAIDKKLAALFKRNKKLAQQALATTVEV

T1: PkaC1, major protein kinase A (PKA) catalytic subunit of Aspergillus fumigatus (Aspergillus fumigatus) (UniProt Q8J129)
T1 sequence: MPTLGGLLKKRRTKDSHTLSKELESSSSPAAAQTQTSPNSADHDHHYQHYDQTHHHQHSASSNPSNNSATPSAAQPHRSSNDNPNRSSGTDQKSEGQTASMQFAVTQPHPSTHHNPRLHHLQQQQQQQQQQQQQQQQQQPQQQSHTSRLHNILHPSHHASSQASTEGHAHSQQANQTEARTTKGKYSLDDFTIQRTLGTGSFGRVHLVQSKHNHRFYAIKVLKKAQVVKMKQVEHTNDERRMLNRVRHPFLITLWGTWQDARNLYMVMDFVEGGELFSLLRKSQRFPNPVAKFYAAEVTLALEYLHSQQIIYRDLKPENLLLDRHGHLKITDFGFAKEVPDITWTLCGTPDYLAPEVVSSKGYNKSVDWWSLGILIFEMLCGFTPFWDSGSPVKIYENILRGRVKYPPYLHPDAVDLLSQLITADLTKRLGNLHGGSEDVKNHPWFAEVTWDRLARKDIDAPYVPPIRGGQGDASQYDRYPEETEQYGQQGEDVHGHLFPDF

B1: Atg24, autophagy-associated protein (vacuolar targeting protein; sorting nexin) of Aspergillus fumigatus (protein, UniProt Q4WQI6 1-497)
chain: MDQHDDFDSVSWRQDPESDISRPTTSGTDADESLEYNRDTNGKRRMSSVHEDPPQAGPLADAVDLAGIGDGVLECRVDSPLKENDGTKDAYISYLVTTHTDFKSFQKPDFAVRRRFTDFYFLYKTLYREYPACAVPPLPEKHKMEYVTGDRFGPEFTSRRAWSLHRFLKRLTLHPVLRRAPLLAIFLESPDWNAHMRLHSTRTSTGNSDGSGTGIFDNFTDTFVNAFTKVHKPDRRFIEVKEKADKLDEDLNHVEKIVARVARRESDLEADYNDLATQFRKLVPLEPDVEVPLQIFAASVEETARGFKMLKDHTDQNYLGSLRDMEAYIVSVKALLKTREQKQLDFEALVDYRNKAVAERDSLAANPSSYYASNPLTSSPASFIRSKMEDMRGVDHEQSRRERVRKLELRIDELTREVESAKTTSEMFDEEVVREVADFERIKAVEFRDTLGALAEKHIDFFQGAINTWERFVAEMEGDLDNDPEMSEHGRGGGVAA

molecular target: T1, PkaC1, major protein kinase A (PKA) catalytic subunit of Aspergillus fumigatus (Aspergillus fumigatus); experiment: affinity purification with mass spectrometry; PkaC1 interactome: proteins coimmunoprecipitated with PkaC1 in an affinity purification procedure (GFP-Trap) from A. fumigatus crude extracts, identified by LC-MS/MS

**Q.** Which binding does the source give for “HapB, CCAAT-binding transcription factor subunit of Aspergillus fumigatus” here?
**A.** no binding

**Q.** With “Not1, putative member of the CCR4-NOT complex of Aspergillus fumigatus” as the molecule, how does the binding read?
**A.** binds

**Q.** How did the binding turn out when “Not2, putative member of the CCR4-NOT complex of Aspergillus fumigatus” was run?
**A.** binds

**Q.** Which binding does the source give for “Not3, putative member of the CCR4-NOT complex of Aspergillus fumigatus” here?
**A.** binds

**Q.** How did the binding turn out when “Not4, CCR4-NOT core complex subunit (ubiquitin ligase) of Aspergillus fumigatus (from UniProt Q4WMT1)” was run?
**A.** binds

molecular target: T1, PkaC1, major protein kinase A (PKA) catalytic subunit of Aspergillus fumigatus (Aspergillus fumigatus); experiment: as above; remark: another data set of the same source

**Q.** For B1, which binding is on record?
**A.** binds
